No constants are given. Whether binding was seen depends on the method and setting. In cells and extracts the contact can be indirect. Some results given as binding are weak or reduced against the parent protein; the word gives no strength.
What was measured:
[1] = target: Bcl-2 (human (endogenous in NB1RGB)) (UniProt P10415); assay: co-IP; aging NB1RGB cells treated with DMSO (also 50 μg/mL lotus germ extract with 10 μM TC-DAPK6) for 24 h; proteins cross-linked in cells with 1 mM DSP for 30 min before lysis in Tris lysis buffer; primary antibody covalently immobilised on protein A/G PLUS-agarose; western blotting
[2] = target: Bcl-2 (human (endogenous in NB1RGB)) (UniProt P10415); assay: condition: only cells treated with 50 μg/mL lotus germ extract for 24 h; co-IP; aging NB1RGB cells treated with 50 μg/mL lotus germ extract for 24 h; proteins cross-linked in cells with 1 mM DSP for 30 min before lysis in Tris lysis buffer; primary antibody covalently immobilised on protein A/G PLUS-agarose; western blotting

Chains of the proteins cited; added tags and fusions are not shown.
UniProt P10415: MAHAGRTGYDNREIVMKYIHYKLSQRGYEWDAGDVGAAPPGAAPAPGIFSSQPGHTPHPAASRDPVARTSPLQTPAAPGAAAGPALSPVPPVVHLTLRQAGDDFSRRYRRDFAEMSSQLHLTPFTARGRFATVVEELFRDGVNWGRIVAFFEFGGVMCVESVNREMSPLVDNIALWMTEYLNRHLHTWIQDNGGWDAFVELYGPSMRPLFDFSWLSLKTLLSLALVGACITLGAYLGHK
UniProt Q14457: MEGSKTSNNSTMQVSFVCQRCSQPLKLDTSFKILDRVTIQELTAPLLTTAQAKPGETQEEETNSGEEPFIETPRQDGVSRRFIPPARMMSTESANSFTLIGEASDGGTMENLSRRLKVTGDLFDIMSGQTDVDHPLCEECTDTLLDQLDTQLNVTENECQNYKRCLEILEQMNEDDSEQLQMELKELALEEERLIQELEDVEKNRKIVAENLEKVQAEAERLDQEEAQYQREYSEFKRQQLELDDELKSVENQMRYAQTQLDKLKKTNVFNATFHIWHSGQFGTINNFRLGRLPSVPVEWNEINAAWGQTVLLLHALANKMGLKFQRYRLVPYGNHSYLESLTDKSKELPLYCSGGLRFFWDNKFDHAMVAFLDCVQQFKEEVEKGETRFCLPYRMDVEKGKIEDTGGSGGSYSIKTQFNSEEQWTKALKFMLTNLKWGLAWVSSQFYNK

With Beclin1 (from UniProt Q14457 1-450) the binding [1] was “binds” and the binding [2] was “no binding”.

— paper PMC9596218
